Assay results reported in PMC8615163.
No constants are given. Whether binding was seen depends on the method and setting. In cells and extracts the contact can be indirect. Some results given as binding are weak or reduced against the parent protein; the word gives no strength.

Experiments:
[1] = molecular target: T1, TGF-βRI (human (endogenous in hTERT-HSC)), P36897; assay: co-IP; 400 μg protein of HSC lysate (RIPA buffer), 1 μg TGFβRI antibody, protein A/G sepharose beads, 4 °C, 12 h; cells with TGF-β1 (10 ng/mL) and/or NP-011 (500 ng/mL); blot for integrin β3/β5; settings: remark: other sources report otherwise
T1 chain: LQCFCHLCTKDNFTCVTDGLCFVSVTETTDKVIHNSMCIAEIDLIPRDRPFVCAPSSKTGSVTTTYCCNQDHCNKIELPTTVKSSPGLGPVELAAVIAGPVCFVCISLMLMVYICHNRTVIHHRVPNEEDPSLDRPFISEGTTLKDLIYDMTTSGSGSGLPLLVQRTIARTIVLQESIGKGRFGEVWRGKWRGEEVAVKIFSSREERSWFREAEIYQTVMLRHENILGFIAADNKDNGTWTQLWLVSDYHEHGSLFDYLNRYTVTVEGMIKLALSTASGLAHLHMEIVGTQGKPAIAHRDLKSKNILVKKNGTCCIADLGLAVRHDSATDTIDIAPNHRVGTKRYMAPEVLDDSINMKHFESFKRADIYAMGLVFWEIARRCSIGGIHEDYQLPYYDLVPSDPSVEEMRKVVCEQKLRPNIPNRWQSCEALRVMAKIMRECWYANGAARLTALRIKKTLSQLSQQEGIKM

[2] = molecular target: T1, TGF-βRI (human (endogenous in …)); assay: proximity ligation; human HSCs, serum-starved 24 h, with or without 10 ng/mL TGF-β1 and/or 500 ng/mL NP-011 for 30 min; Duolink In Situ Red Starter Kit; settings: remark: other sources report otherwise

B1: integrin β3 (endogenous in human HSCs), P05106 27-788 (receptor)
chain: GPNICTTRGVSSCQQCLAVSPMCAWCSDEALPLGSPRCDLKENLLKDNCAPESIEFPVSEARVLEDRPLSDKGSGDSSQVTQVSPQRIALRLRPDDSKNFSIQVRQVEDYPVDIYYLMDLSYSMKDDLWSIQNLGTKLATQMRKLTSNLRIGFGAFVDKPVSPYMYISPPEALENPCYDMKTTCLPMFGYKHVLTLTDQVTRFNEEVKKQSVSRNRDAPEGGFDAIMQATVCDEKIGWRNDASHLLVFTTDAKTHIALDGRLAGIVQPNDGQCHVGSDNHYSASTTMDYPSLGLMTEKLSQKNINLIFAVTENVVNLYQNYSELIPGTTVGVLSMDSSNVLQLIVDAYGKIRSKVELEVRDLPEELSLSFNATCLNNEVIPGLKSCMGLKIGDTVSFSIEAKVRGCPQEKEKSFTIKPVGFKDSLIVQVTFDCDCACQAQAEPNSHRCNNGNGTFECGVCRCGPGWLGSQCECSEEDYRPSQQDECSPREGQPVCSQRGECLCGQCVCHSSDFGKITGKYCECDDFSCVRYKGEMCSGHGQCSCGDCLCDSDWTGYYCNCTTRTDTCMSSNGLLCSGRGKCECGSCVCIQPGSYGDTCEKCPTCPDACTFKKECVECKKFDRGALHDENTCNRYCRDEIESVKELKDTGKDAVNCTYKNEDDCVVRFQYYEDSSGKSILYVVEEPECPKGPDILVVLLSVMGAILLIGLAALLIWKLLITIHDRKEFAKFEEERARAKWDTANNPLYKEATSTFTNITYRGT
binding [1]: binds
binding [2]: binds
